The record followed here is the supplement of paper PMC10849652.

Amino acid sequences for entries named in this document (tags omitted). A change or cut given only in a name is not applied to a line headed by its entry.
UniProt O14530: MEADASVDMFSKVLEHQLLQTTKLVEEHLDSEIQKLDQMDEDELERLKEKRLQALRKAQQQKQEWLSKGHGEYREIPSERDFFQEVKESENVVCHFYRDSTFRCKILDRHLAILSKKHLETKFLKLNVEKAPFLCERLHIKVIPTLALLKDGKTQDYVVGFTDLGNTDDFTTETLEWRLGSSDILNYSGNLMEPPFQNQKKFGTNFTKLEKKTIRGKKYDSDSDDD
UniProt P62253: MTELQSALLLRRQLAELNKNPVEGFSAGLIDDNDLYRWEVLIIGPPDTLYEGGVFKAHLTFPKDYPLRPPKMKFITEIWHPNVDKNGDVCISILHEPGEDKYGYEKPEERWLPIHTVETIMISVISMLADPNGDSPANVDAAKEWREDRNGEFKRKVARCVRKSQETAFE
UniProt Q9NZI7: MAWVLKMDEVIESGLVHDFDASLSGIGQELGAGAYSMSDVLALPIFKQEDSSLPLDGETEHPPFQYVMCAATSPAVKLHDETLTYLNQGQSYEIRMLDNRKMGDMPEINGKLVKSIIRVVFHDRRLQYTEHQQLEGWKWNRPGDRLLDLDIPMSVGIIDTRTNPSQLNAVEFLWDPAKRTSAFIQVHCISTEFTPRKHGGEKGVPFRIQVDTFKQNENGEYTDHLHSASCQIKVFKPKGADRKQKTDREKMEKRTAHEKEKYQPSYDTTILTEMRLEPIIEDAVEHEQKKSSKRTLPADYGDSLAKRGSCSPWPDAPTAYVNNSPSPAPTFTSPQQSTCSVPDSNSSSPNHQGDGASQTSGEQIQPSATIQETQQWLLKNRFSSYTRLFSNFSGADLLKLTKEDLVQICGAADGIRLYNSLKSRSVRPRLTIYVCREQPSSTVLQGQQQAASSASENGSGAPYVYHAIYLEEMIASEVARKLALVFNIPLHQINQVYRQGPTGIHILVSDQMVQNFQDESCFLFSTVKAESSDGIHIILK
UniProt Q9HA47: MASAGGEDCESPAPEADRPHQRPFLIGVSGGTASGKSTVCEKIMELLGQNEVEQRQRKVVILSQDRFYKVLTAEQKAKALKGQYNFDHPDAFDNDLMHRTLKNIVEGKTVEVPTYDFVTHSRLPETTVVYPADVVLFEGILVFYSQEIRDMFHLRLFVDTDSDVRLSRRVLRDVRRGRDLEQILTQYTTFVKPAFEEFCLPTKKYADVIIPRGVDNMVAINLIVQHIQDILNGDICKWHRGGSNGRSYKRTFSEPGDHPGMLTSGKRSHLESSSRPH
UniProt P68363, whole entry, looked up: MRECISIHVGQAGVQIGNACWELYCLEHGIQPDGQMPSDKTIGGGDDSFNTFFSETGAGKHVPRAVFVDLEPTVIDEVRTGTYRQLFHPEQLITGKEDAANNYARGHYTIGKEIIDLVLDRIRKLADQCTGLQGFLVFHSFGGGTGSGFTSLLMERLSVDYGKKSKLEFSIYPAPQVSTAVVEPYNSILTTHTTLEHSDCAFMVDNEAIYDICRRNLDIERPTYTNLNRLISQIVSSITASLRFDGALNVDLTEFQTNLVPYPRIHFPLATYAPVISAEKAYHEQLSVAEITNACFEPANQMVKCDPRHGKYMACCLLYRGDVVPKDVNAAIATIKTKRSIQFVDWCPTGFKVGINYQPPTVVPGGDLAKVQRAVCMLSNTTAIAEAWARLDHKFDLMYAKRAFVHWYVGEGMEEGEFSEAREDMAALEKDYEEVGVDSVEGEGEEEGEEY
UniProt O14562: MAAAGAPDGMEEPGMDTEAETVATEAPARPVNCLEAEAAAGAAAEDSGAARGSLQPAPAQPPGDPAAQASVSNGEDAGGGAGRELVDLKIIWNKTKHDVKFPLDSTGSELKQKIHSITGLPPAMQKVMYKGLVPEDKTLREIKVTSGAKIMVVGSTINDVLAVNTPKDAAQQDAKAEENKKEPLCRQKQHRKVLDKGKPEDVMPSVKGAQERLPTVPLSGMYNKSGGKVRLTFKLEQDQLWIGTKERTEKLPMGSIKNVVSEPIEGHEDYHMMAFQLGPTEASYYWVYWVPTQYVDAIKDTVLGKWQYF
UniProt Q9NPD8: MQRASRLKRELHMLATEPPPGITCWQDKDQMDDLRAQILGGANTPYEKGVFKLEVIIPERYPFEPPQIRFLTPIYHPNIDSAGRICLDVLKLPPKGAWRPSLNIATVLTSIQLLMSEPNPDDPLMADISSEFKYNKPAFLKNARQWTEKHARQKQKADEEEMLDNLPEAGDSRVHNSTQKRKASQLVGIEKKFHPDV
UniProt P63279, whole entry, looked up: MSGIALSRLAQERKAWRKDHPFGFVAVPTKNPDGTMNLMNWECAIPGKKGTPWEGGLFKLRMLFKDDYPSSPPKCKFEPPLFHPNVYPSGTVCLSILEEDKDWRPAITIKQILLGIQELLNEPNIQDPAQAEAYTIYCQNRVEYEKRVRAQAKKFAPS
UniProt O95071: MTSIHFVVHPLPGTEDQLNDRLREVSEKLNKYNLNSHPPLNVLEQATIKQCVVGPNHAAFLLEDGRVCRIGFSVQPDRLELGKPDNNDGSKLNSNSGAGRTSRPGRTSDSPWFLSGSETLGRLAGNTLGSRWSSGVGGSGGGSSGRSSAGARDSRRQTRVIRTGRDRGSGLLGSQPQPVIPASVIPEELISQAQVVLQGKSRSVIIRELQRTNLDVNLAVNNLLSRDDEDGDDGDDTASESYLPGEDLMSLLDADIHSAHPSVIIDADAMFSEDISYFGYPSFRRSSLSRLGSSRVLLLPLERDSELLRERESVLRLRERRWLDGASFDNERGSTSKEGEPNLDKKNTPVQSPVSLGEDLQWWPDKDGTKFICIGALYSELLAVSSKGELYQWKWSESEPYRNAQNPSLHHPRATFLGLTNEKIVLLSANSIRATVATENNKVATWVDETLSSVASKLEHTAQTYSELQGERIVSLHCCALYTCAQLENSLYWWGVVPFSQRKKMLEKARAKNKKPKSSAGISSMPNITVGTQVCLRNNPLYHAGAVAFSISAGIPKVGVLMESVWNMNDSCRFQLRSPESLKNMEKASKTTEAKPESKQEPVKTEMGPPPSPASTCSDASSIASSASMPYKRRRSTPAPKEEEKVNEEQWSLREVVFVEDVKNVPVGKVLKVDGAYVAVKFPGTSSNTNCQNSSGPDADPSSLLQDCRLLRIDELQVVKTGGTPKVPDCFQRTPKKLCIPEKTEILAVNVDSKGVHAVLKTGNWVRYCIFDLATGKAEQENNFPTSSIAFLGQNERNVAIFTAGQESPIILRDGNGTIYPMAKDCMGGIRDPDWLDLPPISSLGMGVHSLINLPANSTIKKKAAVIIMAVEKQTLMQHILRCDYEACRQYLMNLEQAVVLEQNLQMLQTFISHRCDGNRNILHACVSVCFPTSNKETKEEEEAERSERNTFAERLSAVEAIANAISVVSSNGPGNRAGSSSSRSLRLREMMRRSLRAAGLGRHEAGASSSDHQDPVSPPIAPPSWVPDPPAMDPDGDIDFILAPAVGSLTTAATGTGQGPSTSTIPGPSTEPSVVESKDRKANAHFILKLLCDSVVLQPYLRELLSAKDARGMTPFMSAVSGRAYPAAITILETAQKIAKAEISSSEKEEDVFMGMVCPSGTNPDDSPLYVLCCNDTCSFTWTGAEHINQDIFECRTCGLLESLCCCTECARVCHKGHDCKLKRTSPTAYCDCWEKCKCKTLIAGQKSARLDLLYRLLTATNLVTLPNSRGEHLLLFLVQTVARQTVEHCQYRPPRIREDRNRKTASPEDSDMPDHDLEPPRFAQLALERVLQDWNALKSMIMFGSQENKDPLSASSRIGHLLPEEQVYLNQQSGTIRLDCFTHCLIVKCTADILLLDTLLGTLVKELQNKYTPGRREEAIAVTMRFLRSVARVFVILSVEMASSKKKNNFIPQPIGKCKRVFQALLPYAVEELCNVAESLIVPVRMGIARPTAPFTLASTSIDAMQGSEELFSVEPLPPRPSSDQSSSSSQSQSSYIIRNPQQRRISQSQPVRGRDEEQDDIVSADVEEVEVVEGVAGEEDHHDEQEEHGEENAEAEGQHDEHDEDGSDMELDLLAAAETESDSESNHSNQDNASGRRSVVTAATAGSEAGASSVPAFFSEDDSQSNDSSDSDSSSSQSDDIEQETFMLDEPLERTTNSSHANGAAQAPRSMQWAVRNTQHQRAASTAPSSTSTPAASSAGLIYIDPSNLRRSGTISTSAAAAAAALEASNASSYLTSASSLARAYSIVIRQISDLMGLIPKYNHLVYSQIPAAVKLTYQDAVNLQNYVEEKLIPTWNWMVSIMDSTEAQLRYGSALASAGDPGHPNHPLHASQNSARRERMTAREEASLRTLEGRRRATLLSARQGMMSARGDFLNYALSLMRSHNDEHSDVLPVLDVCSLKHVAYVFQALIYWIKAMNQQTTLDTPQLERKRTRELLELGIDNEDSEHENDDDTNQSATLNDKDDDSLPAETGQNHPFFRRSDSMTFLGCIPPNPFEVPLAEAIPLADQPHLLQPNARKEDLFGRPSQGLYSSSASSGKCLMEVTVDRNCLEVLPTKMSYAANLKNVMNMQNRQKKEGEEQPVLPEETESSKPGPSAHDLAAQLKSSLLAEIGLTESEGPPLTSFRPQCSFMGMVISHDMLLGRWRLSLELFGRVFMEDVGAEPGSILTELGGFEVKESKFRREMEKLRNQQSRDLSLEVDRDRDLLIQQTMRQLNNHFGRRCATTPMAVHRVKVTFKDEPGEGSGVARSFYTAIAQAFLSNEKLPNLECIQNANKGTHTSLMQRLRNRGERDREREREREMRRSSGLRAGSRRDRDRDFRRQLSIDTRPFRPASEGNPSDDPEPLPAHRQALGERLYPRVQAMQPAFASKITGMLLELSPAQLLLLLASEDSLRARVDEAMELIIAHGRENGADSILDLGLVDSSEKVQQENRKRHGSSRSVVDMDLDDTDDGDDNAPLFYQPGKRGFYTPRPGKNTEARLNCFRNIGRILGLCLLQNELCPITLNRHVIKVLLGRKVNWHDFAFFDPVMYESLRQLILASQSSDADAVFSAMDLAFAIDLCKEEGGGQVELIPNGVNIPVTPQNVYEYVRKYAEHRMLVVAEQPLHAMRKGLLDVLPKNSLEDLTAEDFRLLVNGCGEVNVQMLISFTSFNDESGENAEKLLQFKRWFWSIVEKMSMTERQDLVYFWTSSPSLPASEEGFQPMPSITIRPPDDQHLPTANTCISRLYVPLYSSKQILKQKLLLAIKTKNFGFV
UniProt P62256: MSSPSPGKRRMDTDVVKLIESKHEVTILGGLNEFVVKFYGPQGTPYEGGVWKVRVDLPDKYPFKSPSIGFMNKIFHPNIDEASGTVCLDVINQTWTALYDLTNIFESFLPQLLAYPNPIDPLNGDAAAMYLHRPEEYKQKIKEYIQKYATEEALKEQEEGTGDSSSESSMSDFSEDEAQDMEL
UniProt Q9H832: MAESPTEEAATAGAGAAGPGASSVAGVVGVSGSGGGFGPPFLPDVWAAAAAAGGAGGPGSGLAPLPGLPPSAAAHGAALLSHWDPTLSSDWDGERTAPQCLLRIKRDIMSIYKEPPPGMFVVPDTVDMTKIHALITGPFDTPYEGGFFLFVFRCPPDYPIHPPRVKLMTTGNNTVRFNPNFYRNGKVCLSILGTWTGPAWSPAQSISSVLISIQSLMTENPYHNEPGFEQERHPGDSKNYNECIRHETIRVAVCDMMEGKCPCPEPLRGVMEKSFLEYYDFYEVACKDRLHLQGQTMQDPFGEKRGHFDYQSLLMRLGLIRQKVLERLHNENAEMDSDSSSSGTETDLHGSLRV
UniProt Q92575: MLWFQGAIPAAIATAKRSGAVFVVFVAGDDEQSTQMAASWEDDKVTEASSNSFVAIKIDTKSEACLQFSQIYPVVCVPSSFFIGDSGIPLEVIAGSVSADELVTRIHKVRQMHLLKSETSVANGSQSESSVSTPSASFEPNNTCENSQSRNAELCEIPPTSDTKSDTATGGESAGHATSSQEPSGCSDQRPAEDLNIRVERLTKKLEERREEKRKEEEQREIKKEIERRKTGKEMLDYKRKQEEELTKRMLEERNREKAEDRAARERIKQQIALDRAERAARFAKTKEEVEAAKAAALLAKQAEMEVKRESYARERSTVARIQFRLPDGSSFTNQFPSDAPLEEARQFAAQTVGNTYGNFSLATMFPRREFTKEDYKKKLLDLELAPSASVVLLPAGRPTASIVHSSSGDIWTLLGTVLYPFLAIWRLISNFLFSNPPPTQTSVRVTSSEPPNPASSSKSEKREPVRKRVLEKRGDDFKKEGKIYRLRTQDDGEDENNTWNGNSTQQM
UniProt P49459, whole entry, looked up: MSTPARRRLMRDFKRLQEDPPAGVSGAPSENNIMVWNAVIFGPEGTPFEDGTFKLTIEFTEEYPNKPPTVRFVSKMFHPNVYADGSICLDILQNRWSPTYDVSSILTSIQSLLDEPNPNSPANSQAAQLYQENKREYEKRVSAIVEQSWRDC

The other results are listed elsewhere or left out.

Compound in the experiment: CC[C@@H]1C(=O)N(C)c2cnc(Nc3ccc(C(=O)NC4CCN(C)CC4)cc3OC)nc2N1C1CCCC1
As to the kind of experiment: log2 fold change, soluble protein after heating vs DMSO (PISA); higher = thermal stabilisation; K562 lysate, 10 uM; active = over 0.2 and 3.5 SD of the protein, either way, in both replicates (recomputed). An outline of the steps:
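Dounce homogenisation of K562 pellets in PBS pH 7.4 with 1 mM MgCl2 produced a crude extract, used at 1 mg/mL protein. Exposure to 10 μM compound lasted 30 min, and aliquots were then heated for 3 min across 48°C-58°C, pooled and brought to 0.5% NP-40 at 4°C. The supernatant after 21,000xg for 90 min was quantified by TMTpro 16plex LC-MS/MS with channel sums equalised. Duplicate values are given as log-two fold change in thermal stability relative to solvent controls.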
For TXNDC9 (UniProt O14530), the log2 fold change was inactive: 0.014. As for UBE2G1 (UniProt P62253), the figure is inactive: 0.027; as for TUBE1 (UniProt Q9UJT0), inactive: 0.112; as for UBP1 (UniProt Q9NZI7), inactive: 0.01. Consider UCK1 isoform 4 (UniProt Q9HA47), for which the log2 fold change was inactive: 0.006.

Turning to TUBA1B (UniProt P68363), the log2 fold change was inactive: -0.02.

In the case of UBFD1 (UniProt O14562), the log2 fold change was inactive: 0.055. Then UBQLN2 (UniProt Q9UHD9), with inactive: 0.006; and UBE2O (UniProt Q9C0C9), with inactive: 0.076.

With UBA6, the log2 fold change was inactive: -0.04. As for UBE2T (UniProt Q9NPD8), the log2 fold change was inactive: -0.008. For UBE2I (UniProt P63279), the log2 fold change was inactive: 0.047. Then TUSC3 isoform 2 (UniProt Q13454), with inactive: 0.092. As for UBR5 (UniProt O95071), the figure is inactive: 0.006; as for UBE2H (UniProt P62256), inactive: 0.011.

In the case of UBXN6 (UniProt Q9BZV1), the log2 fold change is inactive: -0.025. Then U2AF2 (UniProt P26368), with inactive: -0.045; and UBE2Z (UniProt Q9H832), with inactive: 0.057; and UBXN4 (UniProt Q92575), with inactive: 0.022. Regarding UAP1L1 (UniProt Q3KQV9), the log2 fold change is inactive: -0.029. As for UBR2 isoform 4 (UniProt Q8IWV8), the figure is inactive: -0.059. Then UBXN10 (UniProt Q96LJ8), with inactive: 0.095; and UBE2A (UniProt P49459), with inactive: -0.042; and U2SURP (UniProt O15042), with inactive: -0.002.
